Measurements as given in publication PMC4457034.
No constants are given. Whether binding was seen depends on the method and setting. In cells and extracts the contact can be indirect. Binding calls can cover weak binding; strength is not graded here.

The chains behind the UniProt entries cited, without tags or fusion partners. Where a name states a change or a piece, a line headed by the entry shows the natural chain unless it says otherwise.
UniProt Q95RF6: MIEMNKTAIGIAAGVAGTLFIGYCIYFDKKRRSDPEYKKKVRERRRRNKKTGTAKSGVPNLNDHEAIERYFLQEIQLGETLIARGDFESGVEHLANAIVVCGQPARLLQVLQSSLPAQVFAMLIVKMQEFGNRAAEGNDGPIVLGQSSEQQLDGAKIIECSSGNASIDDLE

Key:
[1] = biological target: TOM20-myc from flies overexpressing UAS-TOM20-myc (Drosophila) (UniProt Q95RF6); experiment: co-IP; fly extract from flies overexpressing UAS-TOM20-myc; TOM20 pulled down
[2] = biological target: myc-tagged TOM20 (Translocase of the outer membrane 20) (Drosophila) (UniProt Q95RF6); experiment: co-IP; S2R+ cells transfected with myc-tagged proteins, normal culture conditions; reciprocal IPs (anti-Clu, anti-myc); IP buffer 20 mM HEPES pH 7.4, 50 mM KCl, 0.02% Triton X-100, 1% NP-40 (sub), 1 mM EDTA, 0.5 mM EGTA, 5% glycerol; extract spun at 12,000 g; 4°C overnight; Protein AG magnetic …
[3] = biological target: myc-tagged TOM20 (Translocase of the outer membrane 20) (Drosophila) (UniProt Q95RF6); experiment: co-IP; S2R+ extract, 1% Triton X-100 added to the IP buffer, extract spun at 135,000 g for 30 min (high-speed centrifugation co-IP)
[4] = biological target: myc-tagged PINK1 lacking the mitochondrial targeting sequence (PINK1ΔMTS) (Drosophila); experiment: as above

Measured: binding

B1: Clueless (Clu), endogenous (protein, UniProt A1ZAB5 1-1448)
chain: MALETEAKNSNATATGDATATATKASGKAKENNNTAGGKKNLNPNSNQQNSNQNLVNGNGTAADGPAAKKKGKKNRNKSPTEPTTEAVLSNGHAEKPTVVDAVEDNADTNANVEKPQEGGAPDAEADGDDIDLDALQDIGITVNISSPGADLLCVQLSSMELVQEIHQLLMDREETCHRTCFSLQLDNVTLDNFAELKSINNLEQGSTIKVVEEPYTMREARIHVRHVRDLLKNLDPADAYNGIDCTSLTYLNTITQGDLLDKKRTRPDSVDCTPPEYVTPGVSDPPILPLHPNVKNAKGPQALKVLTTSAWNPPPGPRKLHGDLMYLYVVTMEDKRFHISACSKGFFINQSTDDTFNPKPDNPSHLSHSLIDLLSHISPSFRRAFQTIQKRRTMRHAFERVATPYQVYQWAAPILEHTVDAIRAEDAFSSKLGYEEHIPGQTRDWNEELQTTRELPRKTLPERLLRERAIFKVHGDFVTAATRGAMAVIDGNVLAINPGEDTKMQMFIWNNIFFSMGFDVRDHYKELGGDAAAFVAPRYDLHGVRVYNAVDIEGLYTLGTVVVDYRGYRVTAQSIIPGILEREQEQSVVYGSIDFGKTVLSHPKYLELLRQAGKHLKILPHVVLNERDEPVELCSSVECKGIIGNDGRHYILDLLRTFPPDVNFLKLQDVQLSKELVDMGFPIEHRHKLCCLRQELLEAFIEDRHVNFIRIAAARLQQLTTIKQSEKSEANPVPALEGAEAASKVNGAEKPDDKEKKNEEEEKKERSTSGEARAAAIVNAIREAQSNVATSNEVQAAEVVKRACAAVGSLKEKEFDFRFNPDVFSPGIRHADGEEGTSLAKQKVLVQEAAEFLVLKQIPAFIKEHMSHSSSPIDGQSLTESLHSHGINVRYLGKVIKILSQMPRMDYLHRIAVLELIVRATKHIYYTYMQNTEPLHLSAAISHFLNCLLTNGPVNPAVSSEEAHKKRGNGGKHNKHKSSKGGKGQQQQQTTGNQNGSSSGSSNSSSASDWTLMTPRSLWQQIRKEAKVYWDWELDCDSIETAVSKYGILRISLMRAFCLKVGIQVLLREYNFESKHKPTFGDDDIVNVFPIVKHISPRATDAYNFYTTGQAKIQQGLFKEGYELISGALNLLNNVFGALHQENGSCLRMLARLSYLLGDAQDALAIQQRAVIMSERVNGMDHPSTILEYTHLSLYSFANGHVGMSLKLLYRARYLMVLICGEDHPEVALIDSNISLILHALGEYELSLRFIEHALKLNLKYFGDKDMHVALSYHLMARTQSCMGDFRSALNNEKETYSFYKSQLGENHEKTRDSAECLRLLTQQAVLLQRKMNDIYSSGKLTSDLPPIHITPPSMGSVLDMLNTINGILFVKISRKDIVKVRSEIEKHFKTDSTENEVNDAINSIVAAANNNGEAEDAVSKDIKEQPEAGKQLTNGDKAAATEATSS
binds: [1] | [2] | [3] | [4]
